PubChem BioAssay AID1053208 | Peter MacCallum Cancer Centre – 2014
Assay: 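Find knock-downs that sensitise mouse osteosarcoma cells to doxorubicin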 (primary screen). Cells: mouse osteosarcoma cells, early-passage culture from an engineered mouse model of fibroblastic bone tumour. Reagents: siRNA pool against mouse genes, 40 nM. Timing: about 120 h (48 h before drug, then 72 h with drug). Conditions: doxorubicin 100 nM for 72 h, roughly 30-40% inhibitory dose. Measured: 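Viability read as ATP luminescence after 72 h of 100 nM doxorubicin or none, duplicate wells averaged, scaled to non-targeting siRNA, then expressed as robust z-scores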. Reading the numbers: viability z-score with doxorubicin: higher = more viable cells under doxorubicin; viability z-score without drug: higher = more viable cells with knock-down alone. Active means: 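a pool counts as active when its viability z-score with doxorubicin is -2 or below and its z-score without drug lies between -2 and 2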.
In all, the deposit lists about 17,000 reagents; shown is an unselected part. 788 of them (4.7%) count as active. 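Calls rest on z-score classes alone; an extra cut-off of viability at most 70% of control was not applied to them.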 Entries without a mark were called inactive. Not all columns of the deposit are shown. No sequences are given here.

Wdr5b gave combined z-score class no change with or without drug; viability z-score with doxorubicin 1.12; viability z-score without drug 0.84. Against Wdfy2, the entry reads combined z-score class no change with or without drug; viability z-score with doxorubicin 1.46; viability z-score without drug 0.51. Mansc4 showed combined z-score class no change with or without drug; viability z-score with doxorubicin -0.45; viability z-score without drug -0.17. After knock-down of Cops5 the results were combined z-score class no change with or without drug; viability z-score with doxorubicin 1.46; viability z-score without drug -0.51. Against P2ry14, the values are combined z-score class no change with or without drug; viability z-score with doxorubicin 1.12; viability z-score without drug 0. After knock-down of Pea15a the results were combined z-score class no change with or without drug; viability z-score with doxorubicin -0.9; viability z-score without drug -0.17.

Silencing of Vmn1r215 resulted in: combined z-score class no change with or without drug; viability z-score with doxorubicin -0.67; viability z-score without drug -0.17. After knock-down of Sbsn the results were combined z-score class no change with or without drug; viability z-score with doxorubicin -1.46; viability z-score without drug -0.51. After knock-down of Fancb the results were combined z-score class no change with or without drug; viability z-score with doxorubicin 0.67; viability z-score without drug 0.51. Nfil3 gave combined z-score class no change with or without drug; viability z-score with doxorubicin 1.12; viability z-score without drug 0.67. Silencing of Afg2a resulted in: combined z-score class no change with or without drug; viability z-score with doxorubicin -1.12; viability z-score without drug -0.84. Silencing of Pnma2 came out at: combined z-score class high cell count without drug only; viability z-score with doxorubicin 1.12; viability z-score without drug 2.53.

Wwtr1 gave combined z-score class no change with or without drug; viability z-score with doxorubicin -0.45; viability z-score without drug -0.84. Knock-down of Aldh4a1 came out at: combined z-score class no change with or without drug; viability z-score with doxorubicin 0.34; viability z-score without drug -0.84. Or2b6 gave combined z-score class no change with or without drug; viability z-score with doxorubicin -0.79; viability z-score without drug 0.17.

2 consecutive entries from above, quoted:
Aldh4a1 — combined z-score class = no change with or without drug; viability z-score with doxorubicin = 0.34; viability z-score without drug = -0.84
Or2b6 — combined z-score class = no change with or without drug; viability z-score with doxorubicin = -0.79; viability z-score without drug = 0.17

The listing continues.
Knock-down of Resp18 came out at: combined z-score class no change with or without drug; viability z-score with doxorubicin 0.22; viability z-score without drug -0.51. Silencing of Gm4922 gave: combined z-score class no change with or without drug; viability z-score with doxorubicin 0.45; viability z-score without drug -0.17. After knock-down of Rarb, the screen gave combined z-score class high cell count without drug only; viability z-score with doxorubicin 0.79; viability z-score without drug 2.87. Timp2 scored combined z-score class low cell count with doxorubicin only (active); viability z-score with doxorubicin -2.14; viability z-score without drug -1.18. With knock-down of Pramel6 the results were combined z-score class no change with or without drug; viability z-score with doxorubicin 0.67; viability z-score without drug 0.51. Zfp207 showed combined z-score class no change with or without drug; viability z-score with doxorubicin -0.67; viability z-score without drug -1.18.

Against Ly6f, the entry reads combined z-score class no change with or without drug; viability z-score with doxorubicin 0.45; viability z-score without drug -1.52. Against Il1rl2 the deposit lists combined z-score class no change with or without drug; viability z-score with doxorubicin -0.79; viability z-score without drug 0.51. Elp3 gave combined z-score class high cell count without drug only; viability z-score with doxorubicin 0.56; viability z-score without drug 2.53. For Dpagt1, the entry reads combined z-score class no change with or without drug; viability z-score with doxorubicin 0; viability z-score without drug 0. Against Zcchc9, the values are combined z-score class high cell count without drug only; viability z-score with doxorubicin 1.24; viability z-score without drug 2.36. Tmem60 scored combined z-score class no change with or without drug; viability z-score with doxorubicin -0.22; viability z-score without drug 0.51.

Tmem205 gave combined z-score class no change with or without drug; viability z-score with doxorubicin -1.69; viability z-score without drug -0.84.
